# According to article PMC10272166:
# The chains behind the UniProt entries cited, without tags or fusion partners. Residues count along the entry.
# UniProt P07724, residues 25-608: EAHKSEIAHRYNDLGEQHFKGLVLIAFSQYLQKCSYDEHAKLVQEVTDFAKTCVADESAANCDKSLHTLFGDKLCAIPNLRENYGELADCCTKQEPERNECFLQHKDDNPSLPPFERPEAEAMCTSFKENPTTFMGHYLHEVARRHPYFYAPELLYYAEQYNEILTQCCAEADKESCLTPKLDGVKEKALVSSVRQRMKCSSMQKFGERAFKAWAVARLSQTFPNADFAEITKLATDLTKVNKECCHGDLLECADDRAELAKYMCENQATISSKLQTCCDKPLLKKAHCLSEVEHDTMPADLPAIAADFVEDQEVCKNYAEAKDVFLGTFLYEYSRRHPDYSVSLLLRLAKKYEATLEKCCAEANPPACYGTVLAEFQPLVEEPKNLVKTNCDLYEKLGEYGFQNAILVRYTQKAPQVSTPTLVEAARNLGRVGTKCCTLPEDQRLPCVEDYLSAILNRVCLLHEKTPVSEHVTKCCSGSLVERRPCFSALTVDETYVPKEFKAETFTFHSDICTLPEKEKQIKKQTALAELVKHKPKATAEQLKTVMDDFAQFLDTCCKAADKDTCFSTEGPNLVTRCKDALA
# UniProt P97807, residues 42-507: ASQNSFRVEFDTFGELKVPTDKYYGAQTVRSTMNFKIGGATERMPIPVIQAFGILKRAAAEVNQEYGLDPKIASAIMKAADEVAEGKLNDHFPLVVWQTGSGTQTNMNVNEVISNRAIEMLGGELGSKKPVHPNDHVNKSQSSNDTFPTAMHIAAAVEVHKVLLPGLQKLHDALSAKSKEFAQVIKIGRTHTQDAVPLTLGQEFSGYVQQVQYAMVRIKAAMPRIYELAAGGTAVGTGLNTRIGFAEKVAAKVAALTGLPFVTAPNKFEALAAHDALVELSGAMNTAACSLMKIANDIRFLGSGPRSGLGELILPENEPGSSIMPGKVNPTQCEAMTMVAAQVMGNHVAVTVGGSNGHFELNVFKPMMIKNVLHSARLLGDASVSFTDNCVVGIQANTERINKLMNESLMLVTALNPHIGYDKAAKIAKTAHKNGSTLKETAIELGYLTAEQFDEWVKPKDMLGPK
# Where two headings read alike, the source gives them in different places. Results are given in words; binding and its absence hold for the method and conditions named. In cells and extracts the contact can be indirect. These calls come from enrichment with a bait or labelling near it, and not all partners need be listed.
# Experiments:
# [1] = target: albumin (mouse liver, endogenous) (mouse (endogenous in mouse liver)) (UniProt P07724); assay: affinity purification with mass spectrometry; mouse liver homogenised in RIPA buffer; anti-albumin IgG or isotype control IgG with protein-G agarose, 4 °C; mice fed normal or Western diet for 8 weeks; gel bands analysed by LC-MS/MS
# [2] = target: albumin (mouse liver, endogenous) (mouse (endogenous in mouse liver)) (UniProt P07724); assay: as above; remark: listed apart in the source
Molecule,binding [1],binding [2]
"Fh (mouse liver, endogenous) (from UniProt P97807 42-507)",binds,
"carnitine palmitoyltransferase 2 (mouse liver, endogenous) (protein, UniProt P52825 26-658) SAVSGPAEYLQHSIVPTMHYQDSLPRLPIPKLEDTMKRYLSAQKPLLNDSQFRKTEVLCKDFENGIGKELHAHLLAQDKQNKHTSYISGPWFDMYLTARDSVVLNFNPFMAFNPDPKSEYNDQLTRATNLTVSAVRFLKTLRAGLLEPEVFHLNPARSDTDAFKRLIRFVPSSLSWYGAYLVNAYPLDMSQYFRLFNSTRIPKPSRDELFTDTKARHLLVLRKGHFYVFDVLDQDGNIVNPSEIQAHLKYILSDSSPVPEFPLAYLTSENRDVWAELRQKLIHGGNEETLRKVDSAVFCLCLDDFPMKDLVHLSHTMLHGDGTNRWFDKSFNLIVAKDGTAAVHFEHAWGDGVAVLRFFNEVFRDSTQTPAIAPQSQPAATDSSVSVQKLSFKLSSALKAGVTAAKEKFDATMKTLTIDAIQFQRGGKEFLKKKKLSPDAVAQLAFQMAFLRQYGQTVATYESCSTAAFKHGRTETIRPASIFTKRCSEAFVREPSKHSVGELQHMMAECSKYHGQLTKEAAMGQGFDRHLFALRYLAAARGVTLPELYQDPAYQRINHNILSTSTLSSPAVSLGGFAPVVPDGFGIAYAVHDDWIGCNVSSYSGRNAREFLHCVQKCLEDMFDALEGKAIKT",,binds
